Source: patent US20090275637
No signal at the amounts used counts as a negative. For some assays here: Where a protein sequence is shown, tags need not be part of it. For some assays here: Construct, isoform or probe ends are uncertain for at least one entry.

Chains of the proteins cited; added tags and fusions are not shown. Lines headed by an entry give the natural chain unless they say otherwise; changes in a name come on top. Residues count along the entry.
UniProt P29350: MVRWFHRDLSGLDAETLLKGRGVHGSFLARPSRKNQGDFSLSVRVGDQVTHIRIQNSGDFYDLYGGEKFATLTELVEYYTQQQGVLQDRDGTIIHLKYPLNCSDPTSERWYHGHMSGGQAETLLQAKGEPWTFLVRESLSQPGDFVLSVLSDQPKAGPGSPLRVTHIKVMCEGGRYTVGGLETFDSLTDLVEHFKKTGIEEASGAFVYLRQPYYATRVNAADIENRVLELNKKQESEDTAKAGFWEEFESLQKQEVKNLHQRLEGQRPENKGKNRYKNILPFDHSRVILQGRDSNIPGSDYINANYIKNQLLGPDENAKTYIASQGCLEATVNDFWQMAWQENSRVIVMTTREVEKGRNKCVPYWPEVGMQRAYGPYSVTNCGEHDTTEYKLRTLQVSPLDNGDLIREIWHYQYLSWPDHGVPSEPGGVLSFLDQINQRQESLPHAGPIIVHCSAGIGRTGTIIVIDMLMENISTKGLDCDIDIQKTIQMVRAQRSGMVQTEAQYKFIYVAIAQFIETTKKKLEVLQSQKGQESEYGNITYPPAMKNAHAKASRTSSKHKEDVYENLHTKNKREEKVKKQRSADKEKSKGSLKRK
UniProt P18031, 1-321: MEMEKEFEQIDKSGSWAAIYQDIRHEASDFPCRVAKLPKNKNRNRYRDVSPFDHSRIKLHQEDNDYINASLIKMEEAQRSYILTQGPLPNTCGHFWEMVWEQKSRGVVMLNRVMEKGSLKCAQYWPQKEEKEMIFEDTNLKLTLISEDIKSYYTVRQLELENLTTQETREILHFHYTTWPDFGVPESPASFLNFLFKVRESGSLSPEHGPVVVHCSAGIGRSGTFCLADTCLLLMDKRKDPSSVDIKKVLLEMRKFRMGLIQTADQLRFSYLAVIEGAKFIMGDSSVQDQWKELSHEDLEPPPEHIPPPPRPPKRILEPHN

Key:
Test in all cases: inhibition of the protein
PTPN7 = biological target: T1, PTPN7 (UniProt P35236); conditions: no inhibition up to 400 nM; 20 mM NaCl, 5 uM DiFMUP; purified recombinant protein; protein details: GST; label: 32P (binding assay); variant of C13
T1 sequence (looked up, limits assumed): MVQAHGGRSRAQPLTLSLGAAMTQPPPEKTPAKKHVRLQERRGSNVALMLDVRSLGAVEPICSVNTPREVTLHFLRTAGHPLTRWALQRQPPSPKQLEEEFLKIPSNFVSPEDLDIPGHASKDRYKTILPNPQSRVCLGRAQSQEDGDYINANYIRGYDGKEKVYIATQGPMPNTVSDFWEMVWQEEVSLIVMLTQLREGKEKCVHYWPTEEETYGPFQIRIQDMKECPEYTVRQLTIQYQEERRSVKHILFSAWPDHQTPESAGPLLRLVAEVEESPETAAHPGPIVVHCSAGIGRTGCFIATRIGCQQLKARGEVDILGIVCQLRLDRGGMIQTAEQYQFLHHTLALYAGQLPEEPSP

PTP Sigma = conditions: no inhibition up to 400 nM; 20 mM NaCl, 5 uM DiFMUP; purified recombinant protein; protein details: GST; label: 32P (binding assay); variant of C13
PTPN13 = conditions: no inhibition up to 400 nM; 20 mM NaCl, 5 uM DiFMUP; purified recombinant protein; protein details: GST; label: 32P (binding assay); variant of C13
LAR = conditions: no inhibition up to 400 nM; 20 mM NaCl, 5 uM DiFMUP; purified recombinant protein; protein details: GST; label: 32P (binding assay); variant of C13
MKPX = biological target: T2, MKPX (UniProt Q9NRW4); conditions: no inhibition up to 400 nM; 20 mM NaCl, 5 uM DiFMUP; purified recombinant protein; protein details: GST; label: 32P (binding assay); variant of C13
T2 sequence (looked up, limits assumed): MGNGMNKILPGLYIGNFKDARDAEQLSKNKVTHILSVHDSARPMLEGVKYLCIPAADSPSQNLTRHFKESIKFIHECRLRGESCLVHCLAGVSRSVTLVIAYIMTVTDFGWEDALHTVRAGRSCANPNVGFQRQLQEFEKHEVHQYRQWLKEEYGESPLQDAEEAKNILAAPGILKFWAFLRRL

SHP-1 = SHP-1 (UniProt P29350); conditions: no inhibition up to 400 nM; 20 mM NaCl, 5 uM DiFMUP; purified recombinant protein; protein details: GST; label: 32P (binding assay); variant of C13
PEST (PTP-PEST) = conditions: no inhibition up to 400 nM; 20 mM NaCl, 5 uM DiFMUP; purified recombinant protein; protein details: GST; label: 32P (binding assay); variant of C13
PTP1B (Homo sapiens) = PTP1B (Homo sapiens) (UniProt P18031); conditions: no inhibition at 40 and 200 nM; 125 mM NaCl; purified recombinant protein; protein details: N-terminal His6, R&D Systems 1366-PT-050; variant of C13

## GGGAAUUCUGUGAUCAAUUUGGCAAUCCGCCACACGAGUUC [C13M21]
PTPN7
  functional effect of the aptamer: not active
PTP Sigma
  functional effect of the aptamer: not active
PTPN13
  functional effect of the aptamer: not active
LAR
  functional effect of the aptamer: not active
MKPX
  functional effect of the aptamer: not active
SHP-1
  functional effect of the aptamer: not active
PEST (PTP-PEST)
  functional effect of the aptamer: not active

## GGGAUCAAUUUGGCAAUCCGCCAC [C13M30]
PTP1B (Homo sapiens)
  functional effect of the aptamer: not active

## GGGCAAUCCGCC [C13M39]
PTP1B (Homo sapiens)
  functional effect of the aptamer: not active

## GGGUGGCAAUCCGCCA [C13M38]
PTP1B (Homo sapiens)
  functional effect of the aptamer: not active

## GGGUGUGAUCAAUUUGGCAAUCCGCCACAC [C13M27]
PTP1B (Homo sapiens)
  functional effect of the aptamer: not active
